According to the supplement of paper PMC10849652:
This is one part of the list.

Protein sequences, listed by entry. Tags and fused reporters are not part of them. Lines headed by an entry give the natural chain unless they say otherwise; changes in a name come on top.
UniProt P55011: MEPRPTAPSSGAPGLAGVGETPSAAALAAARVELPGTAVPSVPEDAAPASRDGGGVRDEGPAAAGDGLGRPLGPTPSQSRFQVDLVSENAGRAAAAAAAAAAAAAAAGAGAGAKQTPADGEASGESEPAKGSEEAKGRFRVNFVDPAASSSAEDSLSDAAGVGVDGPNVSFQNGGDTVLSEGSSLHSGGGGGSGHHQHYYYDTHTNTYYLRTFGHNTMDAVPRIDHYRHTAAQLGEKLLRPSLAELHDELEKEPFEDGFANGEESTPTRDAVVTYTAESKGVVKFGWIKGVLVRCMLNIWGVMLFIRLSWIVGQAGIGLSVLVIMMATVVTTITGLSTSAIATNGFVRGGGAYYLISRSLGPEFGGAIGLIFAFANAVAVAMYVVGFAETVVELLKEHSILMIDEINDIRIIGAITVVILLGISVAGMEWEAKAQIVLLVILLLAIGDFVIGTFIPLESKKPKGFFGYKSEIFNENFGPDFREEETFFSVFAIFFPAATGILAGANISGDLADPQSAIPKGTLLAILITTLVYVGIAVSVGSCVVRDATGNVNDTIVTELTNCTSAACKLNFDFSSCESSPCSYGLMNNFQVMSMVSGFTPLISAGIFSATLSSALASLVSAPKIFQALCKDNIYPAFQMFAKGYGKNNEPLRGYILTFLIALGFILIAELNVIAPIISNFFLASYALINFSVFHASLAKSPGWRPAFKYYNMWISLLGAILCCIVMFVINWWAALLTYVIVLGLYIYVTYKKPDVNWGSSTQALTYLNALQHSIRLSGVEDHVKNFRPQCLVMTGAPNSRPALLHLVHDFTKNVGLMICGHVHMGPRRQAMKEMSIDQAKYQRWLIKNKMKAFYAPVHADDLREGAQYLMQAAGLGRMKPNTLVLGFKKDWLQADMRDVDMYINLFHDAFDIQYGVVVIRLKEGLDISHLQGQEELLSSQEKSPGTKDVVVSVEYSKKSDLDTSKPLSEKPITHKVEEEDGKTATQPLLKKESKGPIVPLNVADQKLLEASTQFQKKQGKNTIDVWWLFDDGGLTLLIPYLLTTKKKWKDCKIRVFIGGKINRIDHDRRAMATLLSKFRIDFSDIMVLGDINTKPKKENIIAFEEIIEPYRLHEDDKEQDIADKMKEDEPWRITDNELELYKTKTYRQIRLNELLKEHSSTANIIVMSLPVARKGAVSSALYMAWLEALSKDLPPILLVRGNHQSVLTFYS
UniProt P05141: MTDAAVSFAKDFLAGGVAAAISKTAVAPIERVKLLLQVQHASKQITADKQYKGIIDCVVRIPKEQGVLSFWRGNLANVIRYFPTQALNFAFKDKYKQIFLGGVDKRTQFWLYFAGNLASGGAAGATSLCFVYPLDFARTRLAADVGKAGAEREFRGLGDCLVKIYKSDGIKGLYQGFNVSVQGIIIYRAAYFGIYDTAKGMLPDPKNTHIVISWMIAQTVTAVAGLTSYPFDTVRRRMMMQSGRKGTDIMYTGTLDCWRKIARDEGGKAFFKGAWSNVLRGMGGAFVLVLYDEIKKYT
UniProt Q9ULF5: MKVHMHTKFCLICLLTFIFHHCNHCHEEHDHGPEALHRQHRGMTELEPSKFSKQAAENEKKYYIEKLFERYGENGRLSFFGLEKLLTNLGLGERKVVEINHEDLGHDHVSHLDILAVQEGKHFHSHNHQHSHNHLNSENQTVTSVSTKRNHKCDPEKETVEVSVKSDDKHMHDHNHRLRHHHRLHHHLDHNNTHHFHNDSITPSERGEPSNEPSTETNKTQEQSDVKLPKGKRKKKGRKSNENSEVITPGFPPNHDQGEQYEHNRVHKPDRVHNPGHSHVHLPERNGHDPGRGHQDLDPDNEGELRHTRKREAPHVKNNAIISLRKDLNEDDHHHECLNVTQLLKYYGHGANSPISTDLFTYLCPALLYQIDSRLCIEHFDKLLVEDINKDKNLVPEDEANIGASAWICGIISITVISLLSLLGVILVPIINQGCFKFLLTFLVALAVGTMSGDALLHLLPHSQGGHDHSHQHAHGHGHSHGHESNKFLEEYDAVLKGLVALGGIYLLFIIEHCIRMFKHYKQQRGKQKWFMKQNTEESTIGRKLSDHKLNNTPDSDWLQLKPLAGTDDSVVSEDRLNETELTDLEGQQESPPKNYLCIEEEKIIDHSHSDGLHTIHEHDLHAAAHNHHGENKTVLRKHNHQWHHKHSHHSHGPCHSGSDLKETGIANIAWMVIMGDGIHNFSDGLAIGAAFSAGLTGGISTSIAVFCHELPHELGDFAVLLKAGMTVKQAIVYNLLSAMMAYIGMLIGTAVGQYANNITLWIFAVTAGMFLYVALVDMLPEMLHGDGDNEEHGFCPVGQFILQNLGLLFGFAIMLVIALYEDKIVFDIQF
UniProt Q9H2D1: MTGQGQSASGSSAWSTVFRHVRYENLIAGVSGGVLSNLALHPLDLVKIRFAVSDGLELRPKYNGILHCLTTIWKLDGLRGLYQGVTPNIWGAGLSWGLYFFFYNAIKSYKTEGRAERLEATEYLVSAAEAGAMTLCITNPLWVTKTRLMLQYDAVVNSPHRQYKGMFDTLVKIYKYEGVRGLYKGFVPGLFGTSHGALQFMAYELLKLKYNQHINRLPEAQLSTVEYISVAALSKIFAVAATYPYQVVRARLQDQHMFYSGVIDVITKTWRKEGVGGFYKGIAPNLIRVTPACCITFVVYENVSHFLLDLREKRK
UniProt Q9H1N7: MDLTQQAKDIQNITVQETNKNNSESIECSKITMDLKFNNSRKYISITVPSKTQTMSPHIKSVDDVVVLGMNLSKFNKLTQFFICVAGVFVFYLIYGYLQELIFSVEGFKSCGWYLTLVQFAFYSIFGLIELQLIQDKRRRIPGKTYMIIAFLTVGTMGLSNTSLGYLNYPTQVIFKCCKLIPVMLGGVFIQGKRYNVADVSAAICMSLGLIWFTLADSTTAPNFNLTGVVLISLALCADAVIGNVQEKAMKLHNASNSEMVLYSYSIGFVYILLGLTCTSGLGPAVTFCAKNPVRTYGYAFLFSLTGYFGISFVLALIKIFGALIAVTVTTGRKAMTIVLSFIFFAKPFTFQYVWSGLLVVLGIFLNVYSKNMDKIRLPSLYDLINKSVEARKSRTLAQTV
UniProt O43808: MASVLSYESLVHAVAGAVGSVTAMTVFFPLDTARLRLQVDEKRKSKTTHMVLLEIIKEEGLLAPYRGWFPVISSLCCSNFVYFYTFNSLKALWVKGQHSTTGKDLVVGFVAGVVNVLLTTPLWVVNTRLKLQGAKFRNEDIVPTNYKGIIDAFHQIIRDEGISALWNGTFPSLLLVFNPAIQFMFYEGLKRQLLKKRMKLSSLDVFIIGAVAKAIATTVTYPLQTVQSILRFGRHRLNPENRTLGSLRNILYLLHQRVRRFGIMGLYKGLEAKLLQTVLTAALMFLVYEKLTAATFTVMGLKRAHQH
UniProt Q9UHW9: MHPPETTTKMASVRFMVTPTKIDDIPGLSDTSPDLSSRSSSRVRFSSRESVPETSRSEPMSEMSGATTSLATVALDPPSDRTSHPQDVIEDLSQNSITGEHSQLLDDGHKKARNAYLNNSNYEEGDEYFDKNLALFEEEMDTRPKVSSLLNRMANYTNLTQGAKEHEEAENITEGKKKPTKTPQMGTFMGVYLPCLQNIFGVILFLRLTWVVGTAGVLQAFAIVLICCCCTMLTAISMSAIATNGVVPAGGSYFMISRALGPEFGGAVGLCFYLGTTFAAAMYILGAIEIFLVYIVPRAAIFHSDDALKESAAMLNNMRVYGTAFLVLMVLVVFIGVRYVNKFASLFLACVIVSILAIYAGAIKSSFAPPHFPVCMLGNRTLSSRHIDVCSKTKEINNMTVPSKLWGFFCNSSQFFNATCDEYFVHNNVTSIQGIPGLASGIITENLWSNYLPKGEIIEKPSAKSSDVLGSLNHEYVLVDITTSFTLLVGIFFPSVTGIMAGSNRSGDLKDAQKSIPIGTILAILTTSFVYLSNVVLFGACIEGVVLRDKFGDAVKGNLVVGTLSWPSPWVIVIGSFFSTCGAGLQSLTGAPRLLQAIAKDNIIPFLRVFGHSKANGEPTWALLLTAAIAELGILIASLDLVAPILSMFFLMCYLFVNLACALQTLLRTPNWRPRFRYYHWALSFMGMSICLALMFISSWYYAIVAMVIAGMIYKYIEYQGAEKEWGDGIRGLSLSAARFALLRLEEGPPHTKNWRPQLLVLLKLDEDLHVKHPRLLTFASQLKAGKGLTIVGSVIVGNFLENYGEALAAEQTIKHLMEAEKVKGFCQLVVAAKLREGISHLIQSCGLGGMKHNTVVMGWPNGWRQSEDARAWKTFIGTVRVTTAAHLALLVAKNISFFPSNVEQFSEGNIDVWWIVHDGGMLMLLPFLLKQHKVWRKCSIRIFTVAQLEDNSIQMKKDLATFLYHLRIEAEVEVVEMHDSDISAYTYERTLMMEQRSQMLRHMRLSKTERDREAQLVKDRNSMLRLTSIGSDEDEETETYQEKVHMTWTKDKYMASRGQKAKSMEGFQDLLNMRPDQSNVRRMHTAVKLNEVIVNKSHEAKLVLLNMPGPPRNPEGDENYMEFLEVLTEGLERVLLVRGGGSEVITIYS
UniProt Q00325: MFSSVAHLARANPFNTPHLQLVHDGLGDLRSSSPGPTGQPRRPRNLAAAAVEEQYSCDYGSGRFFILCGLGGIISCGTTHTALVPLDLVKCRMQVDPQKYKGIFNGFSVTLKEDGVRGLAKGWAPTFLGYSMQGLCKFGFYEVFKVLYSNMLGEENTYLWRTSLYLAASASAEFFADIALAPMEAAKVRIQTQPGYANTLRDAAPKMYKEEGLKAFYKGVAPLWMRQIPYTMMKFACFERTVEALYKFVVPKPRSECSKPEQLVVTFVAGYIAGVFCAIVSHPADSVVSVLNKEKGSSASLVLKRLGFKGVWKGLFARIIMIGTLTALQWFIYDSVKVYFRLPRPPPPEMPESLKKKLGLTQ
UniProt Q9BXP2: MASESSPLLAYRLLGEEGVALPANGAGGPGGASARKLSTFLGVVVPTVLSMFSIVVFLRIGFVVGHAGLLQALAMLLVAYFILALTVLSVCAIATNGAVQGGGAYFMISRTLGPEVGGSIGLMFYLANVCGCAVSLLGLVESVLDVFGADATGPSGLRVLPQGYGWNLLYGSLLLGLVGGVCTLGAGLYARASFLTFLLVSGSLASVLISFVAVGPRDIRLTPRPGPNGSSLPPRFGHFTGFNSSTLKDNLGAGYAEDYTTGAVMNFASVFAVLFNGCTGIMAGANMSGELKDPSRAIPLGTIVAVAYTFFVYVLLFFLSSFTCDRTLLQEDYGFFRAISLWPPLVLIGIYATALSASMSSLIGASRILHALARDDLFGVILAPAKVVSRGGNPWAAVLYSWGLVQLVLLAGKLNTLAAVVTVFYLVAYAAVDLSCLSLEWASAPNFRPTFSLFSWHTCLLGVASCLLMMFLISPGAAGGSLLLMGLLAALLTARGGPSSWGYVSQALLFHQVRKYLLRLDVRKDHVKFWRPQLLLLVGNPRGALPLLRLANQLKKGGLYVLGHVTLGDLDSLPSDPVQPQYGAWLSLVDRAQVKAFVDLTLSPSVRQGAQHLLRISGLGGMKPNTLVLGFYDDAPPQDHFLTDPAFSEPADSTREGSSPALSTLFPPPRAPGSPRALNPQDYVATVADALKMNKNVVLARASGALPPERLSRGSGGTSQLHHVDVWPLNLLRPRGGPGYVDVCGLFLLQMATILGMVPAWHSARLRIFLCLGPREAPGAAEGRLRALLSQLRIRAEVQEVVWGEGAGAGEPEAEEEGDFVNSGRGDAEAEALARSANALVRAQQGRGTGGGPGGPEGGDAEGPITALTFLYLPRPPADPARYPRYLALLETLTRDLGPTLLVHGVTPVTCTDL
UniProt Q5BKX6: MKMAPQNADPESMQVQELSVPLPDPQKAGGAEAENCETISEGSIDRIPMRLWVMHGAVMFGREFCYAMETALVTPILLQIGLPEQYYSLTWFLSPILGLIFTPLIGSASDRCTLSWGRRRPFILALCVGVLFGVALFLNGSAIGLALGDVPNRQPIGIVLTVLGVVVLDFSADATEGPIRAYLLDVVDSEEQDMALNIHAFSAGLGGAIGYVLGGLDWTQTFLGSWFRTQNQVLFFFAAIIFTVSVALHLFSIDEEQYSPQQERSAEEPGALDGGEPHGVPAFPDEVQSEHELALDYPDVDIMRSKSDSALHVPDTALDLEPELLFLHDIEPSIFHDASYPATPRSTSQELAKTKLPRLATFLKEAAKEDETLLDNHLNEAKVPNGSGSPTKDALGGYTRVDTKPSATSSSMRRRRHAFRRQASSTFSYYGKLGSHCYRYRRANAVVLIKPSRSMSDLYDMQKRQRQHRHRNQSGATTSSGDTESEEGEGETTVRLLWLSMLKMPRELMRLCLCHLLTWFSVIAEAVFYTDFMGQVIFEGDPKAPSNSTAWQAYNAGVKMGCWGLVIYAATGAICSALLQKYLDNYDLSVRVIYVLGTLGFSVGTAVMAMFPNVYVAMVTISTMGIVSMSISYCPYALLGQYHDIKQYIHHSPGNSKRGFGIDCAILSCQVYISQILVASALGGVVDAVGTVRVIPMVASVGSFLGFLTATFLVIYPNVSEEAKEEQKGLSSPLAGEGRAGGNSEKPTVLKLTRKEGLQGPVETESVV

Assays:
Assay in all cases: log2 fold change, soluble protein after heating vs DMSO (PISA); higher = thermal stabilisation; K562 cells, 10 uM, 30 min; active = over 0.2 and 3.5 SD of the protein, either way, in both replicates (recomputed)
erlotinib = compound: C#Cc1cccc(Nc2ncnc3cc(OCCOC)c(OCCOC)cc23)c1 [erlotinib]
Method in brief: (§1)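 For each measurement, 10 μM compound was applied for 30 min to K562 cells at 2×10^6 cells/mL. Aliquots were heated for 3 min across 48°C-58°C, pooled, and extracted in PBS with 0.5% NP-40 at 4°C; the supernatant after 21,000xg for 90 min was soluble protein. This was quantified by TMTpro 16plex LC-MS/MS with channel sums equalised, and thermal stability was reported relative to control samples from duplicates, on a log2 fold-change scale.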

[1] = compound: C/C(=N\NC(=O)C1=CC(=CC=C1)S(=O)(=O)N2CCOCC2)/C3=C(C=CC(=C3)Cl)O
Method in brief: as §1

[2] = compound: C1=CC(=C(C=C1Cl)C2=NC3=NC=CN=C3C(=N2)NC4=CC=NC=C4)F
Method in brief: as §1

[3] = compound: C1=CC(=CC=C1C2=NC3=C(N2)C=C(C=C3)C(=O)N)OC4=CC=C(C=C4)Cl
Method in brief: as §1

[4] = compound: C1=CC2=C(C=CC(=C2)/C=C\3/C(=O)NC(=NCC4=CC=CS4)S3)N=C1
Method in brief: as §1

[5] = compound: C1=CC2=NC=CN=C2C=C1/C=C/3\C(=O)NC(=O)S3
Method in brief: as §1

[6] = compound: C1=CC=C(C=C1)C2=NC(=C(N2)C3=CC=NC=C3)C4=CC(=C(C=C4)Cl)O
Method in brief: as §1

[7] = compound: C1=CC=C2C(=C1)C3=NNC4=CC=CC(=C43)C2=O
Method in brief: as §1

[8] = compound: C1CCN(C1)C(=O)NC2=CC=CC(=C2)NC3=NC=C(C(=N3)NCCC4=CN=CN4)Br
Method in brief: as §1

[9] = compound: C1CN(CCC1(CC2=CC=C(C=C2)Cl)N)C3=NC=NC4=C3C=CN4
Method in brief: as §1

Measured: log2 fold change

SLC25A10 isoform 2 (UniProt Q9UBX3)
inactive: erlotinib -0.003 | [1] 0.013 | [2] -0.012 | [3] 0.034 | [4] -0.038 | [5] 0.023 | [6] 0.006 | [7] -0.024 | [8] -0.009 | [9] 0.078

SLC12A2 (UniProt P55011)
inactive: erlotinib 0.002 | [1] 0.045 | [2] 0.019 | [3] 0.016 | [4] 0.024 | [5] 0.001 | [6] 0.006 | [7] -0.06 | [8] -0.05 | [9] 0.076

SLC25A5 (UniProt P05141)
inactive: erlotinib 0.036 | [1] -0.086 | [2] -0.001 | [3] 0.006 | [4] -0.126 | [5] 0.005 | [6] 0.099 | [7] 0.096 | [8] -0.045 | [9] 0.133

SLC1A5 (UniProt Q15758)
inactive: erlotinib -0.001 | [1] 0.003 | [2] 0.043 | [3] 0.002 | [4] -0.051 | [5] 0.006 | [6] 0.075 | [7] -0.046 | [8] -0.052 | [9] 0.089

SLC39A10 (UniProt Q9ULF5)
inactive: erlotinib 0.026 | [1] 0.003 | [2] 0 | [3] -0.011 | [4] 0.041 | [5] 0 | [6] -0.074 | [7] -0.037 | [8] -0.035 | [9] 0.025

SLC20A2 (UniProt Q08357)
inactive: erlotinib -0.058 | [1] 0.05 | [2] 0.044 | [3] -0.046 | [4] 0.029 | [5] 0.016 | [6] 0.003 | [7] -0.032 | [8] 0.014 | [9] 0.004

SLC25A25 isoform 3 (UniProt Q6KCM7)
inactive: erlotinib 0.004 | [1] 0.01 | [2] 0.063 | [3] 0.032 | [4] -0.001 | [5] 0.028 | [6] -0.022 | [7] -0.034 | [8] 0.025 | [9] 0.035

SLC7A5 (UniProt Q01650)
inactive: erlotinib 0.057 | [1] -0.033 | [2] 0.012 | [3] 0.01 | [4] -0.016 | [5] 0.01 | [6] -0.066 | [7] -0.008 | [8] -0.054 | [9] 0.187

SLC35F2 (UniProt Q8IXU6)
inactive: erlotinib -0.001 | [1] 0.017 | [2] 0.087 | [3] 0.006 | [4] 0.006 | [5] 0.069 | [6] 0.08 | [7] -0.024 | [8] -0.021 | [9] 0.167

SLC2A13 (UniProt Q96QE2)
inactive: erlotinib 0.205 | [1] 0.118 | [2] 0.162 | [3] -0.038 | [4] 0.111 | [5] 0.233 | [6] -0.028 | [7] -0.105 | [8] -0.041 | [9] -0.049

SLC25A32 (UniProt Q9H2D1)
inactive: erlotinib 0.021 | [1] 0.021 | [2] -0.056 | [3] 0.022 | [4] -0.017 | [5] 0.082 | [6] -0.031 | [7] 0.002 | [8] 0.009 | [9] 0.071

SLC35A1 (UniProt P78382)
inactive: erlotinib 0.014 | [1] -0.126 | [2] 0.05 | [3] -0.008 | [4] 0.082 | [5] -0.017 | [6] -0.043 | [7] -0.061 | [8] -0.052 | [9] 0.077

SLC19A1 (UniProt P41440)
inactive: erlotinib -0.023 | [1] 0.029 | [2] 0.159 | [3] 0.022 | [4] -0.006 | [5] 0.103 | [6] 0.118 | [7] -0.008 | [8] -0.009 | [9] 0.08

SLC16A1 (UniProt P53985)
inactive: erlotinib -0.014 | [1] -0.042 | [2] 0.042 | [3] -0.007 | [4] 0.071 | [5] -0.009 | [6] -0.039 | [7] -0.077 | [8] 0 | [9] 0.091

SLC29A1 isoform 2 (UniProt Q99808)
inactive: erlotinib -0.015 | [1] 0.025 | [2] 0.014 | [3] 0.055 | [4] 0.01 | [5] 0.043 | [6] 0.079 | [7] -0.071 | [8] -0.057 | [9] 0.07

SLC30A9 (UniProt Q6PML9)
inactive: erlotinib 0.042 | [1] 0.002 | [2] 0.057 | [3] -0.012 | [4] 0.03 | [5] -0.035 | [6] -0.07 | [7] 0.021 | [8] -0.083 | [9] 0.03

SLC1A4 (UniProt P43007)
inactive: erlotinib 0.017 | [1] 0.022 | [2] 0.099 | [3] 0.017 | [4] -0.034 | [5] 0.034 | [6] 0.111 | [7] -0.049 | [8] 0 | [9] 0.101

SLC35B3 (UniProt Q9H1N7)
inactive: erlotinib 0.048 | [1] -0.101 | [2] -0.021 | [3] 0.092 | [4] 0.162 | [5] 0.012 | [6] 0.041 | [7] -0.02 | [8] -0.03 | [9] -0.014

SLC27A4 (UniProt Q6P1M0)
inactive: erlotinib 0.039 | [1] 0.013 | [2] -0.023 | [3] 0.032 | [4] 0.082 | [5] -0.02 | [6] 0.002 | [7] 0.061 | [8] -0.017 | [9] 0.062

SLC25A17 (UniProt O43808)
inactive: erlotinib -0.001 | [1] 0.031 | [2] 0.065 | [3] 0.027 | [4] -0.041 | [5] 0.072 | [6] 0.057 | [7] 0.02 | [8] 0.008 | [9] 0.138

SLC12A6 isoform 2 (UniProt Q9UHW9)
inactive: erlotinib 0.007 | [1] 0.082 | [2] -0.01 | [3] 0.041 | [4] -0.011 | [5] -0.004 | [6] 0.034 | [7] -0.038 | [8] -0.007 | [9] 0.029

SLC25A42 (UniProt Q86VD7)
inactive: erlotinib 0.08 | [1] 0.01 | [2] 0.089 | [3] 0.01 | [4] -0.032 | [5] -0.026 | [6] 0.079 | [7] -0.137 | [8] -0.086 | [9] 0.066

SLC25A26 (UniProt Q70HW3)
inactive: erlotinib 0.095 | [1] 0.001 | [2] 0.004 | [3] 0.041 | [4] -0.015 | [5] 0.032 | [6] -0.127 | [7] 0.114 | [8] 0.097 | [9] -0.147

SLC25A3 isoform 2 (UniProt Q00325)
inactive: erlotinib -0.017 | [1] -0.013 | [2] -0.026 | [3] 0.006 | [4] -0.016 | [5] -0.001 | [6] -0.017 | [7] 0.047 | [8] 0.009 | [9] 0.068

SLC6A8 (UniProt P48029)
inactive: erlotinib 0.026 | [1] 0.021 | [2] 0.051 | [3] 0.041 | [4] -0.044 | [5] 0.126 | [6] 0.003 | [7] -0.028 | [8] -0.003 | [9] 0.035

SLC12A9 (UniProt Q9BXP2)
inactive: erlotinib 0.023 | [1] 0.03 | [2] 0.039 | [3] -0.013 | [4] -0.04 | [5] 0.021 | [6] 0.016 | [7] -0.015 | [8] -0.019 | [9] -0.012

SLC45A4 isoform 3 (UniProt Q5BKX6)
inactive: erlotinib 0.021 | [1] 0 | [2] -0.12 | [3] -0.007 | [4] -0.011 | [5] 0.065 | [6] -0.151 | [7] -0.036 | [8] -0.086 | [9] 0.043

2 entries drawn at random from those above:
SLC25A3 isoform 2 (UniProt Q00325)
inactive: erlotinib -0.017 | [1] -0.013 | [2] -0.026 | [3] 0.006 | [4] -0.016 | [5] -0.001 | [6] -0.017 | [7] 0.047 | [8] 0.009 | [9] 0.068

SLC12A9 (UniProt Q9BXP2)
inactive: erlotinib 0.023 | [1] 0.03 | [2] 0.039 | [3] -0.013 | [4] -0.04 | [5] 0.021 | [6] 0.016 | [7] -0.015 | [8] -0.019 | [9] -0.012
